Literature values as cited in patent US20050171374A1, “Preparation of levulinic acid esters from alpha-angelica lactone and olefins; use of ester compositions as fuel additives” (priority 2004, published 2005).

Conditions: references [3], [4]

Row | Structure (SMILES) | Blending Octan No R + M/2 Reported
1 | COC(=O)CCC(C)=O [Methyl Levulinate] | 106.5[4]
2 | COC(C)(C)C [MTBE, methyl tertiary-butyl ether, reference compound] | 108[3]
3 | CCOC(=O)CCC(C)=O [Ethyl Levulinate] | 107.5[4]
4 | CC(=O)CCC(=O)OC(C)C [Isopropyl Levulinate] | 105[4]
5 | CC(=O)CCC(=O)OCC(C)C [Isobutyl Levulinate] | 102.5[4]
6 | CCC(C)OC(=O)CCC(C)=O (stereo not drawn) [Sec-Butyl Levulinate] | 102.5[4]
7 | COC=O [Methyl Formate] | 101.5[4]
8 | CCOC=O [Ethyl Formate] | 102.5[4]
9 | CCO [Ethanol, reference compound] | 100[3]

Counter-ions that a name gives are not always drawn.
